PubChem BioAssay AID1259254 | NCATS, 2017
Here is a random part of about 59,000 reagents. About 1,550 of all reagents (2.6%) count as active. 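G2 share is only a proxy for re-replication; each gene was hit by three separate siRNAs, and active genes were retested.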 Further read-outs or replicates are left out here. The record does not give: the amount of reagent.

- Screen: 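Gene knock-downs that lead to re-replication, shown by excess G2 DNA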 (primary screen)
- System: human HCT116 colorectal cancer cells
- Reagent: single siRNA against human genes
- Duration: 3 days
- Measurement: 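Imaged Hoechst DNA stain sorts each cell into a cycle phase by DNA amount; per plate, G2 fraction set to 0% for non-targeting and 100% for GMNN siRNA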
- Reading the numbers: G2 robust z-score: higher = more G2 cells, more excess DNA replication
- Active means: 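An siRNA counts as active if its G2 robust z-score lies at least 5 MADs above the screen median; here such calls match roughly 38% of GMNN control or more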

With TRMT2B [SID160749893], how do the results read?
G2 robust z-score: 0.22; outcome: inactive

What is on record for TRMT2B [SID160749894]?
G2 robust z-score: -0.912; outcome: inactive

How did the screen score TRMT2B [SID160749895]?
G2 robust z-score: -0.64; outcome: inactive

For LIPA [SID160776634], what does the deposit list?
G2 robust z-score: -0.445; outcome: inactive

Which result is listed for LIPA [SID160776635]?
G2 robust z-score: -0.636; outcome: inactive

With LIPA [SID160776636], what was measured?
G2 robust z-score: 3.14; outcome: inactive

With HCN4 [SID160724084], what was measured?
G2 robust z-score: -0.595; outcome: inactive

For HCN4 [SID160724088], how do the results read?
G2 robust z-score: -0.76; outcome: inactive

For HCN4 [SID160724095], what was measured?
G2 robust z-score: 0.271; outcome: inactive

Which result is listed for RHOBTB1 [SID160762973]?
G2 robust z-score: -0.225; outcome: inactive

With RHOBTB1 [SID160763073], what does the deposit list?
G2 robust z-score: -0.619; outcome: inactive

For RHOBTB1 [SID160763173], what does the deposit list?
G2 robust z-score: 1.43; outcome: inactive

2 entries from above, reformatted:
gene | PubChem SID | G2 robust z-score | outcome
HCN4 | SID160724095 | 0.271 | inactive
RHOBTB1 | SID160762973 | -0.225 | inactive
